Data published in paper doi:10.1101/855098.
Results are given in words; binding and its absence hold for the method and conditions named. Some entries that bind do so weakly or less than the wild type.

Target: T1, MKK3 (Arabidopsis), O80396
T1 chain: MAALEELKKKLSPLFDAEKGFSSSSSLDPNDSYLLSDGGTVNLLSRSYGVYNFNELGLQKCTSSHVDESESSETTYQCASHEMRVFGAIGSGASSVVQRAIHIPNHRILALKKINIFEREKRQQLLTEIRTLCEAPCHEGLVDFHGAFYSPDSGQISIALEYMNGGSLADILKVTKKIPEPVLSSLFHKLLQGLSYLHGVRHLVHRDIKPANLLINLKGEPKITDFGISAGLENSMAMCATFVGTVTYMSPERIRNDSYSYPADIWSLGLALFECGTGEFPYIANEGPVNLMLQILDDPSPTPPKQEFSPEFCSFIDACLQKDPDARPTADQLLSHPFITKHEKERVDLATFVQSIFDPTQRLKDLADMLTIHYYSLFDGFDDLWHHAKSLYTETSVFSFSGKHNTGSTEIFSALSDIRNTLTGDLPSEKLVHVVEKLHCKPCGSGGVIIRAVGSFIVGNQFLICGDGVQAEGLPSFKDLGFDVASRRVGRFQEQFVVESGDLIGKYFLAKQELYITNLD
Experiment: two-hybrid
Conditions: remark: other sources report otherwise

B1: MAP3K18, Q9ZVP5 1-339 (enzyme)
chain: MNWTRGKTLGRGSTATVSAATCHESGETLAVKSAEFHRSEFLQREAKILSSLNSPYVIGYRGCEITREPFHNNGEATTYSLLMEYAPYGTLTDVATKNGGFIDEARVVKYTRQILLGLEYIHNSKGIAHCDIKGSNVLVGENGEAKIADFGCAKWVEPEITEPVRGTPAFMAPEAARGERQGKESDIWAVGCTVIEMVTGSQPWIGADFTDPVSVLYRVGYLGELPELPCSLTEQAKDFLGKCLKKEATERWTASQLLNHPFLVNKEPELVTGLVTNSPTSVTDQMFWRSVEEEVSEDRSSWWECHEDERIGVLSWIGHVVVESTWDLDGEDWITVRRN
- binding: binds
